Experimental data published in article doi:10.1101/2022.06.26.497666 (bioRxiv, 2022).
No constants are given. Whether binding was seen depends on the method and setting. Binding calls can cover weak binding; strength is not graded here. For part of these data: Binding seen in cells or lysates may run through a third protein.

The chains behind the UniProt entries cited, without tags or fusion partners.
UniProt Q9ULZ3: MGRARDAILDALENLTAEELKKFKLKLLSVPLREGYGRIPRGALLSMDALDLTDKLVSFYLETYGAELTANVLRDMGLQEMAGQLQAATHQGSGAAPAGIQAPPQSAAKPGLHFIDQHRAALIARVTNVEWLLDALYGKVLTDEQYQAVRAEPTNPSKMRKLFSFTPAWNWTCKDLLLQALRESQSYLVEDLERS

Experiments:
[1] = molecular target: full-length ASC (pBIND, DNA-binding domain fusion) (human) (UniProt Q9ULZ3); test: two-hybrid
[2] = molecular target: T1, NLRP1 (wild-type full-length human NLRP1) (human) (UniProt Q9C000); test: co-IP
T1 sequence: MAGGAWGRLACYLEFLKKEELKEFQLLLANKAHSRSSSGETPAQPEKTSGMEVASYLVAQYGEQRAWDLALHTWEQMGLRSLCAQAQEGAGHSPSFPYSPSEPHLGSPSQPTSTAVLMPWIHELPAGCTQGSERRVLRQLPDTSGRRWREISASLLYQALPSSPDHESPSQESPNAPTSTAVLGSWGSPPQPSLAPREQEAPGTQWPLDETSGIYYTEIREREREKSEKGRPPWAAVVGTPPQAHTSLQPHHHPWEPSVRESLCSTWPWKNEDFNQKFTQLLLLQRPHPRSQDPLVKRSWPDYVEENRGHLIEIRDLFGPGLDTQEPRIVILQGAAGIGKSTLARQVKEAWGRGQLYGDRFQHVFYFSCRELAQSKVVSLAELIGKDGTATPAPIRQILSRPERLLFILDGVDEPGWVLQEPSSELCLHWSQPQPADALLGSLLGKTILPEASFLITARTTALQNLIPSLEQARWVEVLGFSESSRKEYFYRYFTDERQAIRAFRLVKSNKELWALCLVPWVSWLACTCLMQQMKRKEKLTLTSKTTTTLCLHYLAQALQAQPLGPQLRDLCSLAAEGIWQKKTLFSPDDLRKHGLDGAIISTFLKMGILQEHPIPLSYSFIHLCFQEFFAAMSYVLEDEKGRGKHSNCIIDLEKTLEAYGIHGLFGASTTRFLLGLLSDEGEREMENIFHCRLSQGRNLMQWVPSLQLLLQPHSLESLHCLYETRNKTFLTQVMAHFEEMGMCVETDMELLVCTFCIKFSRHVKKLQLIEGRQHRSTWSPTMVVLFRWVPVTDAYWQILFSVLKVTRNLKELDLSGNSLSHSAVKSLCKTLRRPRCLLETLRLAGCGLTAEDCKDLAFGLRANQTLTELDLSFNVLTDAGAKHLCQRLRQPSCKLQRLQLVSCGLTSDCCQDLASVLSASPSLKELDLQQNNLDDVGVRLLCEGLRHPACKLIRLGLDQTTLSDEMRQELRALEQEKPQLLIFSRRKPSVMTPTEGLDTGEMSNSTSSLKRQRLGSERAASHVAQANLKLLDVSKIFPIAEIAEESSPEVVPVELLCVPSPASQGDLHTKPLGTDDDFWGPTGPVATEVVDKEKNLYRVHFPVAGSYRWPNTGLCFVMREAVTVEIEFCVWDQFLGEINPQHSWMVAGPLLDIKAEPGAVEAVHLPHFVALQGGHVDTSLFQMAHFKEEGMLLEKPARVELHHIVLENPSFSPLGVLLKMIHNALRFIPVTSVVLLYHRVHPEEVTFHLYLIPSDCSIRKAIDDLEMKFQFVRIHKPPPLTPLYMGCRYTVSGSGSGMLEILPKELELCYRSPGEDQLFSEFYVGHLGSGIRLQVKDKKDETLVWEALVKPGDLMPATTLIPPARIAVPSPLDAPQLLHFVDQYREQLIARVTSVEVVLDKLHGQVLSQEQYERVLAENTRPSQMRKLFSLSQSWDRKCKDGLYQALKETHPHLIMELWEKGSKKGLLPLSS

[3] = molecular target: NLRP1 LRR domain (truncation mutant of NLRP1) (human) (UniProt Q9C000); test: co-IP

## NLRP1 UPA-CARD fragment (pACT, VP16 activation domain fusion) (from UniProt Q9C000-1) (domain or fragment)
[1]
  binding: binds

## CARD8-T60 ZU5 subdomain (truncation mutant of CARD8-T60) (from UniProt Q9Y2G2-5) (domain or fragment)
[2]
  binding: binds

B1: CARD8-T60 isoform (full-length) (natural protein)
chain: MEKKECPEKSSSSEEELPRRDSGSSRNIDASKLIRLQGSRKLLVDNSIRELQYTKTGIFFQAEACVTNDTVYRELPCVSETLCDISHFFQEDDETEAEPLLFRAVPECQLSGGDIPSVSEEQESSEGQDSGDICSEENQIVSSYASKVCFEIEEDYKNRQFLGPEGNVDVELIDKSTNRYSVWFPTAGWYLWSATGLGFLVRDEVTVTIAFGSWSQHLALDLQHHEQWLVGGPLFDVTAEPEEAVAEIHLPHFISLQAGEVDVSWFLVAHFKNEGMVLEHPARVEPFYAVLESPSFSLMGILLRIASGTRLSIPITSNTLIYYHPHPEDIKFHLYLVPSDALLTKAIDDEEDRFHGVRLQTSPPMEPLNFGSSYIVSNSANLKVMPKELKLSYRSPGEIQHFSKFYAGQMKEPIQLEITEKRHGTLVWDTEVKPVDLQLVAASAPPPFSGAAFVKENHRQLQARMGDLKGVLDDLQDNEVLTENEKELVEQEKTRQSKNEALLSMVEKKGDLALDVLFRSISERDPYLVSYLRQQNL
[3]
  binding: binds
